Test [1] addresses Flag-tagged mouse JAK1 (full-length) (mouse) (UniProt P52332). The experiment in a line: co-immunoprecipitation from 293T cells with anti-CIS or anti-JAK1 antibodies, anti-FLAG blot.
Test [2] shares this target. In words: co-immunoprecipitation from 293T cells.

Protein sequences, listed by entry. Tags and fused reporters are not part of them.
UniProt P52332: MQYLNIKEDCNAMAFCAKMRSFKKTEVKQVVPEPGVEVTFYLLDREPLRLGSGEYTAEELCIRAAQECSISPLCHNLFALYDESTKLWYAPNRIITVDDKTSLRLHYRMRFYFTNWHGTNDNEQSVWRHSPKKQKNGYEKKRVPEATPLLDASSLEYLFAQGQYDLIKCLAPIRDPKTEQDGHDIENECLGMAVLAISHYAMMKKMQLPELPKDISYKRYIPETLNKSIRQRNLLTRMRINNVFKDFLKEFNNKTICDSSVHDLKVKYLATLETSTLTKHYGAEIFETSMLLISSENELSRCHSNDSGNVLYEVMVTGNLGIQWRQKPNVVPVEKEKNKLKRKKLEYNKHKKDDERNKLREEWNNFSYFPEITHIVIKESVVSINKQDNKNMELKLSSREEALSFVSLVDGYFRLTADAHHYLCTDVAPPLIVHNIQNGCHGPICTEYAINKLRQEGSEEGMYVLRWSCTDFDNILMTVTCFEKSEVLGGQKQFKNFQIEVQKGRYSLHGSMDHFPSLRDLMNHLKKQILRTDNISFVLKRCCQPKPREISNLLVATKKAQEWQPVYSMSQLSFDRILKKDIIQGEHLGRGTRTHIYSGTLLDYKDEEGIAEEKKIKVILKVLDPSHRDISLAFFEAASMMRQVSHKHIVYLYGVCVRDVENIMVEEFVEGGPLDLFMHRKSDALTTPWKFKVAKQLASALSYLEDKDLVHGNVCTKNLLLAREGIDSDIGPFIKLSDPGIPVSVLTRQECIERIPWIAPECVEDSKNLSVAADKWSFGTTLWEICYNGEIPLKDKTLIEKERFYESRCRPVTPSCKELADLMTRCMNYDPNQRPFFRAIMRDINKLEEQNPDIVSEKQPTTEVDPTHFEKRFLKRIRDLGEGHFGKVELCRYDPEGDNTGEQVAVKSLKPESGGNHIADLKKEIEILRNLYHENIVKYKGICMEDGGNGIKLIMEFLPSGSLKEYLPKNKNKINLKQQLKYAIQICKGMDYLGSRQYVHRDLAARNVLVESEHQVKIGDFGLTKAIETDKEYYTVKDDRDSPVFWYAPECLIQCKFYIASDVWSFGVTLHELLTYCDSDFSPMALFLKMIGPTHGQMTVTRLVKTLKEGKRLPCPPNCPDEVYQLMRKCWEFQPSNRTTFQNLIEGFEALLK

These are yes or no findings as the source states them, for the method shown. Binding seen in cells or lysates may run through a third protein. Some results given as binding are weak or reduced against the parent protein; the word gives no strength. Where a sequence is shown, tags or fusion partners need not be part of it.

B1: Flag-tagged mouse CIS (protein, not shown: small tags and cut ends)
chain: MVLCVQGSCPLLAVEQIGRRPLWAQSLELPGPAMQPLPTGAFPEEVTEETPVQAENEPKVLDPEGDLLCIAKTFSYLRESGWYWGSITASEARQHLQKMPEGTFLVRDSTHPSYLFTLSVKTTRGPTNVRIEYADSSFRLDSNCLSRPRILAFPDVVSLVQHYVASCAADTRSDSPDPAPTPALPMSKQDAPSDSVLPIPVATAVHLKLVQPFVRRSSARSLQHLCRLVINRLVADVDCLPLPRRMADYLRQYPFQL
B1: the binding entry in test [1] and in test [2] was “binds” in each case.

Values taken from US20180298101A1.
